From the supplement of paper PMC10338343
± gives the standard deviation. Only a part is listed here, and it is no random draw. The uncertainty is large for many entries.

System: EfPiwi piRISC loaded with piRNA #1 (26 nt)
Assay: pre-steady-state target cleavage rate (min^-1); guide: piRNA #1 5'p-UGAGGUAGUAGGUUGUAUAGUAUCCA; MIWI and MILI are mouse PIWI proteins and EfPiwi is from a freshwater sponge; tags in brackets are library labels; higher = faster piRNA-guided slicing of the target
Conditions: auxiliary factor: 500 nM Ephydatia muelleri Gtsf1
Method in brief: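 Active affinity-purified piRISC (1 nM) loaded with one synthetic guide was mixed with a transcribed, DNA-blocked target RNA library (0.1 nM), with or without 500 nM GTSF1 partner protein, in HEPES–potassium acetate buffer at 33 °C for 0–8 or 0–960 min. Uncleaved targets were sequenced, normalised to depth and to weakly complementary targets, and pooled across three trials, with k3 capped at 0.0001 min^-1. The pre-steady-state cleavage rate was determined with a burst-and-steady-state fit.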

Sequence	pre-steady-state target cleavage rate
GGAGAGGAUACUAUACAACCAACUACCUGA	0.00332 ± 0.0017
GGAGAGGAACUAUACAACCUACUACCUCA	0.00746 ± 0.0049
GGAGACGAUACAAUACUACCUACUACCUCA	0.00238 ± 0.0021
GGAGACCAUUCUUUACAACCUACUACCUCA	0.0111 ± 0.0056
GGAGACGACACUAUACAACCUACUACCUCA	0.114 ± 0.038
GGAGACCUAACUAUACAACCUACUAACCUCA	0.00295 ± 0.0038
GGAGACCUAUCUAUCCAACCUACUACCUCA	0.00348 ± 0.0037
GGAGACCUAUGUAUACAACCUACUACCGUCA	0.00101 ± 0.0072
GGAGUGGAUACUAUACAAGCCUACUACCUCA	0.0104 ± 0.0053
GGAGAGGAUACUUUACAAGCUACUACCUCA	0.00384 ± 0.0021
GGAGACCUAUGUAUACAACUUACUACCUCA	0.000827 ± 0.007
GGAGACCUUAUUAUACAACCUACUACCUCA	0.00416 ± 0.0043
GGAGAGGAUUGUAUACAACCUACUACCUCA	0.00676 ± 0.0048
GGAGACGAUACUACUACAACCUACUACCUCA	0.0327 ± 0.012
GGAGACCUAUCUAUACAACGUACUUCCUCA	0.001 ± 0.0028
GGAGACCAUACUAUACUAGCUACUACCUCA	0.000516 ± 0.0069
GGAGACGUAUACUAUACAACCUACUACCUCA	0.0356 ± 0.013
GGAGUGGAUACAAUACAACCUACUUCCUCA	0.00231 ± 0.0024
GGAGUGGAUACUAUAGAACCUAGUACCUCA	0.00157 ± 0.0017
GGAGACCUUACUAUACAUCCUACUUCCUCA	0.00308 ± 0.0031
GGAGUCGAUACUUUACAACCUACUACCUCA	0.00331 ± 0.0033
GGAGACCUUACUAUACAACCUACUACCUAA	0.00756 ± 0.0045
GGAGACGAUACUAUAACAACCUACUACCUCA	0.00793 ± 0.0029
GGAGACGAUACUCAUACAACCUACUACCUCA	0.0151 ± 0.0063

A stretch of the results above, as a working copy:
Sequence	pre-steady-state target cleavage rate
GGAGAGGAACUAUACAACCUACUACCUCA	0.00746 ± 0.0049
GGAGACGAUACAAUACUACCUACUACCUCA	0.00238 ± 0.0021
GGAGACCAUUCUUUACAACCUACUACCUCA	0.0111 ± 0.0056
GGAGACGACACUAUACAACCUACUACCUCA	0.114 ± 0.038
GGAGACCUAACUAUACAACCUACUAACCUCA	0.00295 ± 0.0038
GGAGACCUAUCUAUCCAACCUACUACCUCA	0.00348 ± 0.0037
